Results from the supplement of paper PMC10849652.
The other results are listed elsewhere or left out.

Sequences of proteins named here, by UniProt entry; tags and fusion partners are left off. A change or cut given only in a name is not applied to a line headed by its entry.
UniProt O76041: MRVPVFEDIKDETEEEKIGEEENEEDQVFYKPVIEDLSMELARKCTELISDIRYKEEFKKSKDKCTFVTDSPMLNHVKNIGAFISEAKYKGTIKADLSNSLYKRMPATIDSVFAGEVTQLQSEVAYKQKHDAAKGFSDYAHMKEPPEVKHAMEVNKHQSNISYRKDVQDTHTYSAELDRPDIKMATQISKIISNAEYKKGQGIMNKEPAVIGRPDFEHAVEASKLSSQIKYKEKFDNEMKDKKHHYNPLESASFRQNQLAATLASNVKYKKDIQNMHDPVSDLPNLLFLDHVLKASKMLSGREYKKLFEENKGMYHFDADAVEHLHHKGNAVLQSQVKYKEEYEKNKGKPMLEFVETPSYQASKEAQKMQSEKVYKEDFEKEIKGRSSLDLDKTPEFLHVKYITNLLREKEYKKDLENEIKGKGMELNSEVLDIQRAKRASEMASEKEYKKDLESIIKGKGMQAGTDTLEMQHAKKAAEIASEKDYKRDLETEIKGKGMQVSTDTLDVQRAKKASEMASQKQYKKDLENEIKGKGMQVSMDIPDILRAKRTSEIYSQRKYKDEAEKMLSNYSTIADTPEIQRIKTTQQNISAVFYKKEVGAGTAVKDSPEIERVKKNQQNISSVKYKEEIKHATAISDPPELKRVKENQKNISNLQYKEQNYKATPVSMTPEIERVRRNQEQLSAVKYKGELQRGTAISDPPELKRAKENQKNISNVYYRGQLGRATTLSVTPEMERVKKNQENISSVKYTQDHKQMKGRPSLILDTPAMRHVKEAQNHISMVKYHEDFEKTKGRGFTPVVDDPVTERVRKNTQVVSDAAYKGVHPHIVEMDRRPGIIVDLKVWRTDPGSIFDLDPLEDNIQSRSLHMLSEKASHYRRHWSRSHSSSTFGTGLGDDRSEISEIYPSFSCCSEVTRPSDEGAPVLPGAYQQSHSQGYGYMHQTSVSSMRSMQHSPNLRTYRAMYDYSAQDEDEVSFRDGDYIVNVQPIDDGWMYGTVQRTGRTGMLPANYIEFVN
UniProt O75251, whole entry, looked up: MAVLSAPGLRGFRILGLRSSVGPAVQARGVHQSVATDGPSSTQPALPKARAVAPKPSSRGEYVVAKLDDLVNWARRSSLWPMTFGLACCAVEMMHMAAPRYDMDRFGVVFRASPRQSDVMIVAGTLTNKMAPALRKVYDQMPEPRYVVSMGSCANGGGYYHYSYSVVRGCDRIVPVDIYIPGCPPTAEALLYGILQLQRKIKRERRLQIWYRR
UniProt Q9NYR9: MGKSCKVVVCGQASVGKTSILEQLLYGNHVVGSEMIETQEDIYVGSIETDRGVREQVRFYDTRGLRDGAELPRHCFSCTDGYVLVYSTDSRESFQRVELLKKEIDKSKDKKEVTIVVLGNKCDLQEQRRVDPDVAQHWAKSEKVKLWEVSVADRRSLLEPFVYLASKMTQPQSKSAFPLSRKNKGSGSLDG
UniProt O95096: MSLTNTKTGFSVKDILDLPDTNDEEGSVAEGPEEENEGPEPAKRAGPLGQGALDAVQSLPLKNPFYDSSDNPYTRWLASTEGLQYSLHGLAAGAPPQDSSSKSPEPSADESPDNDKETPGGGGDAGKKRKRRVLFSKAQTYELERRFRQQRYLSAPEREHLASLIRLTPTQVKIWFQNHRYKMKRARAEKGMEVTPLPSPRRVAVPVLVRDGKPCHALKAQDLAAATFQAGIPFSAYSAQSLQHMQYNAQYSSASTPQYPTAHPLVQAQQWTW
UniProt Q9UFN0: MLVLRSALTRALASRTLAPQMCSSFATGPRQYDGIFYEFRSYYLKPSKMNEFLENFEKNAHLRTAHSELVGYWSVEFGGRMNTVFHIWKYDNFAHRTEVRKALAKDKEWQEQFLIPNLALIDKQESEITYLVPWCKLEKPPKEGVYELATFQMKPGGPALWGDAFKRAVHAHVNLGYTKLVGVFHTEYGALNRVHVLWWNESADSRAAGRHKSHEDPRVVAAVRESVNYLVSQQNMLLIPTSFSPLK
UniProt O95167, whole entry, looked up: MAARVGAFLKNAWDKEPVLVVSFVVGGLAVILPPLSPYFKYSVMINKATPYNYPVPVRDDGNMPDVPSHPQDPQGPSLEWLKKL
UniProt O95298, whole entry, looked up: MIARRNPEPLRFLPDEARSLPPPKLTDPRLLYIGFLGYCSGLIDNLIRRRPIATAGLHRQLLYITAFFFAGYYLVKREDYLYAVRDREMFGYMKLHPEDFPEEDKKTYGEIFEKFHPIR
UniProt Q9NQR4: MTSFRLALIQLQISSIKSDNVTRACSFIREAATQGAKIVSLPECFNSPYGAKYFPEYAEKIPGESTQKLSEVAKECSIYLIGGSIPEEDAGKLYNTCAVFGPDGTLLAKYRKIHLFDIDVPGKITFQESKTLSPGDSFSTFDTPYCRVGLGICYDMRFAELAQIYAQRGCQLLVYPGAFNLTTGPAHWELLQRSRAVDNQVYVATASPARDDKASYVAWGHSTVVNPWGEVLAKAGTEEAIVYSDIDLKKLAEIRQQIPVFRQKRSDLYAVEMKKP
UniProt Q9BT67: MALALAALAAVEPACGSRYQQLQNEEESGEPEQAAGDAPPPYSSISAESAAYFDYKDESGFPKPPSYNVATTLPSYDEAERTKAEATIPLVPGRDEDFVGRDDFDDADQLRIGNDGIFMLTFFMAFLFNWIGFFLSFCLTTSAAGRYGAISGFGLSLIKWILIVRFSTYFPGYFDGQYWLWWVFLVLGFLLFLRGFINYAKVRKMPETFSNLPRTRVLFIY
UniProt O75438, whole entry, looked up: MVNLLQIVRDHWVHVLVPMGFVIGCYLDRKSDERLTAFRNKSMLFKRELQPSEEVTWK
UniProt P12036: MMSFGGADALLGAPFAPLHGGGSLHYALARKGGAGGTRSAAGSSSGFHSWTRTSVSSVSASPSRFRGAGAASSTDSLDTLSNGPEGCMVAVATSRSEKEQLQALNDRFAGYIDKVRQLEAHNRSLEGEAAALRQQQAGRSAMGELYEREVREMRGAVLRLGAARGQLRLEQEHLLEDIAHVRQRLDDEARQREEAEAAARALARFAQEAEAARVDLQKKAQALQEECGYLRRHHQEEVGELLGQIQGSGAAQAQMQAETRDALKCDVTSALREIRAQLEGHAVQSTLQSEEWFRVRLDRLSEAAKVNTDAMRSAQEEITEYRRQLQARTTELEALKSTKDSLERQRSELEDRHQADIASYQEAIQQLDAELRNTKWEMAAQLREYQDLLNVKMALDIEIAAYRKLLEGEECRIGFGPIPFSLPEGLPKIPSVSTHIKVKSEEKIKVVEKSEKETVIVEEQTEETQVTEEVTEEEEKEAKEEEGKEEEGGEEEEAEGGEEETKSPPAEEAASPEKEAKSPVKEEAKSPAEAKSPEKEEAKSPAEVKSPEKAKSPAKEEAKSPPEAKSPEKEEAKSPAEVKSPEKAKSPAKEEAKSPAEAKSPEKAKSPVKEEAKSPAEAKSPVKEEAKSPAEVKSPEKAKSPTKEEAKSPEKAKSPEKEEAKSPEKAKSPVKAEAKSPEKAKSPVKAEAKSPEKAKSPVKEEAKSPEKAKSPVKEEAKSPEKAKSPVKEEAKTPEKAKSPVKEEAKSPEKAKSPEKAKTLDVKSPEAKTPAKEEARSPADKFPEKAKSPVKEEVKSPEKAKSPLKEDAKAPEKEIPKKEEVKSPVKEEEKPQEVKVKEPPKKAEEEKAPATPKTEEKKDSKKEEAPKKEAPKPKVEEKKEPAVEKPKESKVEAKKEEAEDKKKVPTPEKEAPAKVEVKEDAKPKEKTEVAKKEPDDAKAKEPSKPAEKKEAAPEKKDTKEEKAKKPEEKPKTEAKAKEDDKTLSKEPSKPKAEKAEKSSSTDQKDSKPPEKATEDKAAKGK

Key:
Assay in all cases: log2 fold change, soluble protein after heating vs DMSO (PISA); higher = thermal stabilisation; K562 lysate, 10 uM; active = over 0.2 and 3.5 SD of the protein, either way, in both replicates (recomputed)
erlotinib = compound: C#Cc1cccc(Nc2ncnc3cc(OCCOC)c(OCCOC)cc23)c1 [erlotinib]
Summary of the method: (§1)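 K562 pellets were dounce-homogenised in PBS pH 7.4 with 1 mM MgCl2, and the crude extract at 1 mg/mL protein was treated with 10 μM compound for 30 min. Aliquots were heated for 3 min across 48°C-58°C, pooled, and brought to 0.5% NP-40 at 4°C; soluble protein was the supernatant after 21,000xg for 90 min. Soluble protein was quantified by TMTpro 16plex LC-MS/MS with channel sums equalised, and reported as log2 fold change in thermal stability against DMSO controls, with values from duplicates.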

[1] = compound: C/C(=N\NC(=O)C1=CC(=CC=C1)S(=O)(=O)N2CCOCC2)/C3=C(C=CC(=C3)Cl)O
Summary of the method: as §1

[2] = compound: C1=CC(=CC=C1C2=NC3=C(N2)C=C(C=C3)C(=O)N)OC4=CC=C(C=C4)Cl
Summary of the method: as §1

[3] = compound: C1=CC2=C(C=CC(=C2)/C=C\3/C(=O)NC(=NCC4=CC=CS4)S3)N=C1
Summary of the method: as §1

[4] = compound: C1=CC2=NC=CN=C2C=C1/C=C/3\C(=O)NC(=O)S3
Summary of the method: as §1

[5] = compound: C1=CC=C(C=C1)C2=NC(=C(N2)C3=CC=NC=C3)C4=CC(=C(C=C4)Cl)O
Summary of the method: as §1

[6] = compound: C1=CC=C2C(=C1)C3=NNC4=CC=CC(=C43)C2=O
Summary of the method: as §1

[7] = compound: C1CCN(C1)C(=O)NC2=CC=CC(=C2)NC3=NC=C(C(=N3)NCCC4=CN=CN4)Br
Summary of the method: as §1

[8] = compound: C1CN(CCC1(CC2=CC=C(C=C2)Cl)N)C3=NC=NC4=C3C=CN4
Summary of the method: as §1

IRAK-1-4 Inhibitor I = compound: C1COCCN1CCN2C3=CC=CC=C3N=C2NC(=O)C4=CC(=CC=C4)[N+](=O)[O-] [IRAK-1-4 Inhibitor I]
Summary of the method: as §1

ibrutinib = compound: C=CC(=O)N1CCC[C@@H](n2nc(-c3ccc(Oc4ccccc4)cc3)c3c(N)ncnc32)C1 [ibrutinib]
Summary of the method: as §1

[9] = compound: CC(=O)c1cnc2ccc(-c3cc(Cl)c(O)c(Cl)c3)nc2c1N[C@H]1CC[C@H](CN(C)C)CC1
Summary of the method: as §1

ralimetinib = compound: CC(C)(C)Cn1c(N)nc2ccc(-c3[nH]c(C(C)(C)C)nc3-c3ccc(F)cc3)nc21 [ralimetinib]
Summary of the method: as §1

[10] = compound: CC(C)(O)CC(=O)NCCn1ccc2ncnc(Nc3ccc(Oc4cccc(C(F)(F)F)c4)c(Cl)c3)c21
Summary of the method: as §1

[11] = compound: CC(C)C1=C2N=C(C=C(N2N=C1)NCC3=CC=CC=C3)NCCCCCCN
Summary of the method: as §1

[12] = compound: CC1=C(C(CC(=O)N1)C2=CC=C(C=C2)C(F)(F)F)C(=O)NC3=C(C=C4C(=C3)C=NN4)F
Summary of the method: as §1

[13] = compound: CC1=C(C2=C(C=C1)C(=O)C3=CC=CC=C3N2CCCN)C
Summary of the method: as §1

[14] = compound: CC1=C(C=C(C=C1)NC(=O)C2=CC(=CC=C2)C(C)(C)C#N)NC3=CC4=C(C=C3)N=CN(C4=O)C
Summary of the method: as §1

[15] = compound: CC1=C(C=C(C=C1)NC(=O)C2=CC(=CC=C2)N(C)C)NC(=O)C3=CC=C(C=C3)O
Summary of the method: as §1

[16] = compound: CC1=CC=C(C=C1)SC2=C3C=C(SC3=CN=C2)C(=O)N
Summary of the method: as §1

Measured: log2 fold change

NEBL (UniProt O76041)
inactive: erlotinib -0.014 | [1] -0.028 | [2] 0.05 | [3] 0.015 | [4] -0.048 | [5] 0.001 | [6] -0.082 | [7] -0.087 | [8] 0.013 | IRAK-1-4 Inhibitor I 0.054 | ibrutinib 0.087 | [9] 0.052 | ralimetinib 0.009 | [10] -0.003 | [11] -0.015 | [12] -0.037 | [13] -0.061 | [14] -0.006 | [15] -0.012 | [16] -0.025

NDUFS7 (UniProt O75251)
inactive: erlotinib -0.003 | [1] 0.027 | [2] -0.126 | [3] -0.026 | [4] 0.032 | [5] 0.044 | [6] 0.046 | [7] -0.028 | [8] 0.009 | IRAK-1-4 Inhibitor I 0.006 | ibrutinib -0.016 | [9] 0.018 | ralimetinib 0.035 | [10] -0.056 | [11] 0 | [12] 0.039 | [13] 0.038 | [14] 0.014 | [15] -0.014 | [16] 0.056

NKIRAS2 (UniProt Q9NYR9)
inactive: erlotinib 0.09 | [1] -0.03 | [2] 0.017 | [3] -0.031 | [4] 0.01 | [5] -0.011 | [6] -0.12 | [7] 0.076 | [8] 0.035 | IRAK-1-4 Inhibitor I 0.055 | ibrutinib -0.023 | [9] -0.033 | ralimetinib -0.019 | [10] -0.025 | [11] -0.013 | [12] 0.048 | [13] -0.058 | [14] 0.1 | [15] 0.01 | [16] 0.052

NKX2-2 (UniProt O95096)
inactive: erlotinib 0.146 | [1] 0.049 | [2] 0.17 | [3] -0.04 | [4] 0.007 | [5] -0.048 | [6] -0.129 | [7] 0.009 | [8] 0.086 | IRAK-1-4 Inhibitor I 0.026 | ibrutinib 0.147 | [9] -0.1 | ralimetinib -0.006 | [10] -0.391 | [11] 0.031 | [14] 0.253 | [15] -0.062 | [16] -0.176

NIPSNAP3A (UniProt Q9UFN0)
inactive: erlotinib 0.008 | [1] -0.014 | [2] 0.062 | [3] -0.03 | [4] 0.012 | [5] 0.003 | [6] 0.015 | [7] -0.012 | [8] 0.002 | IRAK-1-4 Inhibitor I 0.015 | ibrutinib -0.013 | [9] -0.014 | ralimetinib -0.016 | [10] -0.049 | [11] 0.029 | [12] 0.023 | [13] -0.021 | [14] 0.004 | [15] 0.022 | [16] -0.056

NDUFA3 (UniProt O95167)
inactive: erlotinib 0.011 | [1] -0.036 | [2] -0.045 | [3] 0.017 | [4] -0.108 | [5] -0.008 | [6] -0.115 | [7] -0.042 | [8] 0.006 | IRAK-1-4 Inhibitor I -0.011 | ibrutinib 0.001 | ralimetinib -0.047 | [10] -0.047 | [11] 0.002 | [12] 0.001 | [13] -0.002 | [14] 0.072 | [15] 0.071

NDUFC2 (UniProt O95298)
inactive: erlotinib 0.013 | [1] -0.065 | [2] -0.029 | [3] 0.027 | [4] -0.019 | [5] -0.017 | [6] -0.088 | [7] -0.058 | [8] 0.097 | IRAK-1-4 Inhibitor I -0.004 | ibrutinib 0.011 | [9] -0.033 | ralimetinib -0.037 | [10] 0.001 | [11] 0.059 | [12] -0.002 | [13] -0.022 | [14] -0.053 | [15] -0.024 | [16] 0.022

NIT2 (UniProt Q9NQR4)
inactive: erlotinib -0.048 | [1] 0.001 | [2] 0.014 | [3] 0.009 | [4] 0.007 | [5] -0.03 | [6] 0.032 | [7] -0.006 | [8] 0.015 | IRAK-1-4 Inhibitor I 0.067 | ibrutinib 0.026 | [9] 0.014 | ralimetinib -0.038 | [10] -0.041 | [11] 0.014 | [12] 0.017 | [13] 0.014 | [14] 0.017 | [15] 0.019 | [16] 0

NDFIP1 (UniProt Q9BT67)
inactive: erlotinib 0.002 | [1] -0.206 | [2] 0.109 | [3] 0.021 | [4] -0.111 | [5] 0.037 | [6] -0.094 | IRAK-1-4 Inhibitor I 0.039 | ibrutinib 0.119 | [9] 0.052 | ralimetinib 0.077 | [10] 0.001 | [11] -0.059 | [12] 0.086 | [13] -0.252 | [14] -0.004 | [15] -0.079 | [16] 0.189

Two entries picked at random from the list so far:
NEBL (UniProt O76041)
inactive: erlotinib -0.014 | [1] -0.028 | [2] 0.05 | [3] 0.015 | [4] -0.048 | [5] 0.001 | [6] -0.082 | [7] -0.087 | [8] 0.013 | IRAK-1-4 Inhibitor I 0.054 | ibrutinib 0.087 | [9] 0.052 | ralimetinib 0.009 | [10] -0.003 | [11] -0.015 | [12] -0.037 | [13] -0.061 | [14] -0.006 | [15] -0.012 | [16] -0.025

NKX2-2 (UniProt O95096)
inactive: erlotinib 0.146 | [1] 0.049 | [2] 0.17 | [3] -0.04 | [4] 0.007 | [5] -0.048 | [6] -0.129 | [7] 0.009 | [8] 0.086 | IRAK-1-4 Inhibitor I 0.026 | ibrutinib 0.147 | [9] -0.1 | ralimetinib -0.006 | [10] -0.391 | [11] 0.031 | [14] 0.253 | [15] -0.062 | [16] -0.176

Additional results follow:

NDUFB1 (UniProt O75438)
inactive: erlotinib -0.014 | [1] -0.096 | [2] -0.082 | [3] -0.022 | [4] 0.021 | [5] -0.131 | [6] 0.013 | IRAK-1-4 Inhibitor I 0.05 | ibrutinib -0.063 | ralimetinib 0.069 | [10] -0.069 | [11] -0.053 | [12] 0.013 | [13] 0.002 | [14] 0.009 | [15] 0.008

NEFH (UniProt P12036)
inactive: erlotinib -0.013 | [1] -0.03 | [2] 0.014 | [3] 0.048 | [4] -0.061 | [5] -0.017 | [6] -0.031 | [7] 0.016 | [8] 0.036 | IRAK-1-4 Inhibitor I -0.028 | ibrutinib 0.019 | [9] -0.021 | ralimetinib 0.016 | [10] -0.09 | [11] -0.012 | [12] 0.007 | [13] 0.066 | [14] 0.014 | [15] 0.043 | [16] -0.007
